Patent US20100016238 (published 2010)

Assay: general procedure: Fmoc solid-phase peptide synthesis; Fmoc-Rink amide AM resin (0.71 mmol/g, Novabiochem); HOBt/DIC; HOAt/DIC for some couplings
Settings: whole synthesis, UV 214 nm, scale 0.25 mmol

Substance: {2-[2-(16-(tetrazol-5-yl)hexadecanoylamino)ethoxy]ethoxy}acetyl-Gln-Arg-Ser-His-Ser-Nle-c[Glu-Hyp-D-Phe-Arg-Trp-Lys]-NH2
- final HPLC purity: 100% purity
